Experimental data reported in US20080014191A1.
No constants are given. Whether binding was seen depends on the method and setting. In cells and extracts the contact can be indirect. Some binding calls cover weakened binding; strength is not graded here.

Sequences of proteins named here, by UniProt entry; tags and fusion partners are left off. A change or cut given only in a name is not applied to a line headed by its entry.
UniProt P13569: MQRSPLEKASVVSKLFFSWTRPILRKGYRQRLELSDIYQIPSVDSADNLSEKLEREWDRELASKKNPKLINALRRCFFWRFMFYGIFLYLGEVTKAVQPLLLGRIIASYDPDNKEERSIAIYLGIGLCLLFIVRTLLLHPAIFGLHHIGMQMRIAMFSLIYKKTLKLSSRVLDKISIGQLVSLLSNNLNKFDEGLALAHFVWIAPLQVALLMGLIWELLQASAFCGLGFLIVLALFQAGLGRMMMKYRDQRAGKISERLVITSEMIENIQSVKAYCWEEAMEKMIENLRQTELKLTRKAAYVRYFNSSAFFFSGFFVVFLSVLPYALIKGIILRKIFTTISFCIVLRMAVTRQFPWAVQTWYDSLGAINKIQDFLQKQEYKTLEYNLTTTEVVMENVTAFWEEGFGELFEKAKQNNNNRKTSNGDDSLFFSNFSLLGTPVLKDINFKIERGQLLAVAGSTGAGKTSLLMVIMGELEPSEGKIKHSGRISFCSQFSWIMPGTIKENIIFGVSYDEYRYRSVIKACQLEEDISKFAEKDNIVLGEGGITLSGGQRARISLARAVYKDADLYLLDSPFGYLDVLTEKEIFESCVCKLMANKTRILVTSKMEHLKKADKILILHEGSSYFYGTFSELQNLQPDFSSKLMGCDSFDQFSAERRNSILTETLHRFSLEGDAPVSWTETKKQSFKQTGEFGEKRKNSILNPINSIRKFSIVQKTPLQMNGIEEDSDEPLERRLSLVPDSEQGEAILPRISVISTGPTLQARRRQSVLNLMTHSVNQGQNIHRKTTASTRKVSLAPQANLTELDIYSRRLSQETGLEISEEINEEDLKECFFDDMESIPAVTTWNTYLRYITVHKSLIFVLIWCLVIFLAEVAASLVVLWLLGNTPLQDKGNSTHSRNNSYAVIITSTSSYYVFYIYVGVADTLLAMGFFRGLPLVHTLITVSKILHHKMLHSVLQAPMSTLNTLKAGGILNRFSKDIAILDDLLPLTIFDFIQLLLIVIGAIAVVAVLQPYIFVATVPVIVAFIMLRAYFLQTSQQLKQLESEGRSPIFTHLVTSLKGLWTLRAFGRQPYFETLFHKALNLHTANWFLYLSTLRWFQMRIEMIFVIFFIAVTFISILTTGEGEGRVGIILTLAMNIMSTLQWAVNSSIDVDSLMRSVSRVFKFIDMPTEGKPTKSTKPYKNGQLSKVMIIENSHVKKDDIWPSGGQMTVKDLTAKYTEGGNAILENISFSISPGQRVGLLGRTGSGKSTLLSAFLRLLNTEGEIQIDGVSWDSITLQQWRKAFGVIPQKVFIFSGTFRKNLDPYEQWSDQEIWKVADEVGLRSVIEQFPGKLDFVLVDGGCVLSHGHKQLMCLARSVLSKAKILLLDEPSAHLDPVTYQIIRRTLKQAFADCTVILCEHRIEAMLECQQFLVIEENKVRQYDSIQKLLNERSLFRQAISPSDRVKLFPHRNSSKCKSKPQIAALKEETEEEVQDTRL

Biological target: ΔF508 CFTR (Homo sapiens (Human)) (UniProt P13569)
Assay: CFTR co-IP, MudPIT MS; BHK cells

- binding: binds
B1: Calnexin (protein, UniProt P27824 21-592, looked up)
chain: HDGHDDDVIDIEDDLDDVIEEVEDSKPDTTAPPSSPKVTYKAPVPTGEVYFADSFDRGTLSGWILSKAKKDDTDDEIAKYDGKWEVEEMKESKLPGDKGLVLMSRAKHHAISAKLNKPFLFDTKPLIVQYEVNFQNGIECGGAYVKLLSKTPELNLDQFHDKTPYTIMFGPDKCGEDYKLHFIFRHKNPKTGIYEEKHAKRPDADLKTYFTDKKTHLYTLILNPDNSFEILVDQSVVNSGNLLNDMTPPVNPSREIEDPEDRKPEDWDERPKIPDPEAVKPDDWDEDAPAKIPDEEATKPEGWLDDEPEYVPDPDAEKPEDWDEDMDGEWEAPQIANPRCESAPGCGVWQRPVIDNPNYKGKWKPPMIDNPSYQGIWKPRKIPNPDFFEDLEPFRMTPFSAIGLELWSMTSDIFFDNFIICADRRIVDDWANDGWGLKKAADGAAEPGVVGQMIEAAEERPWLWVVYILTVALPVFLVILFCCSGKKQTSGMEYKKTDAPQPDVKEEEEEKEEEKDKGDEEEEGEEKLEEKQKSDAEEDGGTVSQEEEDRKPKAEEDEILNRSPRNRKPRRE
